In this test the target is GSK3β-hDISCtide complex (human) (UniProt P49841+Q9NRI5). As to the kind of experiment: SPR. For orientation: Surface plasmon resonance follows binding to a sensor surface in real time, without labels.

Chains of the proteins cited; added tags and fusions are not shown. Lines headed by an entry give the natural chain unless they say otherwise; changes in a name come on top.
UniProt P49841: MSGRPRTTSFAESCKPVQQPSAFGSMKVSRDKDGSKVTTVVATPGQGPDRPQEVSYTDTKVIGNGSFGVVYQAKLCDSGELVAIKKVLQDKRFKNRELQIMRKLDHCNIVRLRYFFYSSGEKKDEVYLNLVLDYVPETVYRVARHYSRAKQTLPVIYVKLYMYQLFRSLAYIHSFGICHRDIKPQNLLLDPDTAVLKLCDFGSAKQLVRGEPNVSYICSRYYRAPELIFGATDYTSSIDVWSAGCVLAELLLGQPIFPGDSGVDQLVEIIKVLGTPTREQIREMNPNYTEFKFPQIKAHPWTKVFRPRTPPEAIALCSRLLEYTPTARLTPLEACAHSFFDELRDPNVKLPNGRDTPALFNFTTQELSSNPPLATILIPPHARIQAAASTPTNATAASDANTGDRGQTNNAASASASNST

No constants are given. Whether binding was seen depends on the method and setting.

As for PEVPPTPPGSHSAFTSSFSFIRLSLGSAGERGEAEGCPPSREAE (peptide, UniProt Q9NRI5 193-236) [hDISCtide, 44-mer peptide derived from human DISC1 (residues 193-236)], the binding result is recorded as “no binding (tested: 4 μM)”.

The record behind these values is article doi:10.1101/2020.06.18.159665.
